Among all 300,000 compounds or so, about 3,700 (1.2%) were called active. Inconclusive means that the source gave no clear call. Such entries were picked first, then a sample of the others. The call rests on the fitted dose curve; tested in HEK293 cells. A potency beside an inconclusive call is a rough fit, not a confirmed value.
assay: qHTS for Inhibitors of binding or entry into cells for Lassa Virus; conditions: Lassa virus pseudotype entry inhibition, cell reporter; activity change, negative = inhibition: at 37.9 µM (top of the series) unless noted; further: nearly all actives have a fitted effect of over 50% in size
On the % scale 0 is the no-effect control and ±100 the full control effect; potency means the concentration at half of the fitted maximal effect.

| SMILES | activity change, negative = inhibition | Potency |
| --- | --- | --- |
| COCCNC(=O)c1cc2sc3ccccc3c2s1 | inactive: -8.38% | – |
| CCC(C)(C)NC(=O)C(c1ccc(OC)cc1)N(C(=O)CCC(=O)Nc1cc(C)on1)c1cccc(F)c1 (stereo not given) | – | active: 7.08 µM |
| Brc1cccc(Nc2nc(-c3cccnc3)cs2)c1 | – | inconclusive: 6.31 µM [activator, single point] |
| COc1ccc(NC(=O)CC2C(=O)N(c3ccc(F)cc3)C(=O)N2Cc2ccc3c(c2)OCO3)cc1 (stereo not given) | inactive: -4.92% [at 46.1 µM] | – |
| COc1ccc(OC)c(-c2cc(C(=O)Nc3c(C)nn(Cc4ccccc4)c3C)no2)c1 | – | inconclusive: 2.59 µM [inhibitor, partial curve] |
| COC(=O)c1ccc(NC(=S)NC(=O)C2CCC2)cc1 | – | inconclusive: 10 µM [activator, single point] |
| C(=C\N1CCCCCC1)/c1nnnn1-c1ccc(-c2ccccc2)cc1 | – | inconclusive: 7.08 µM [inhibitor, partial curve, poor fit] |
| CC(=O)N1N=C(c2ccc(Br)cc2)CC1c1cn(C)c2ccccc12 (stereo not given) | – | inconclusive: 22.4 µM [inhibitor, single point] |
| CC#CCN(Cc1ccco1)C(=O)c1ccc(OC2CCN(Cc3ccccn3)CC2)cc1 | inactive: -0.864% | – |
| O=C(Cc1ccccc1F)Nc1nc(-c2ccc(F)c(F)c2)cs1 | – | inconclusive: 0.891 µM [inhibitor, full curve, poor fit] |
| COc1ccc(C)cc1S(=O)(=O)NCC(c1cccnc1)N1CCc2ccccc2C1 (stereo not given) | – | inconclusive: 31.6 µM [activator, single point] |
| O=c1c2ccccc2nc2c3ccccc3ncn12 | – | inconclusive: 11.6 µM [activator, partial curve] |
| CCCCOc1ccc(CNC(=O)c2cc3n(n2)CCCN(Cc2ccc(C)cc2)C3=O)cc1 | – | inconclusive: 20 µM [inhibitor, single point] |
| CCN(CC)CCCNC(=O)c1cn(CCOC)c(=O)c2c1c1ccccc1n2C | – | inconclusive: 14.6 µM [activator, single point] |
| O=C(CN1C(=O)C2CC=CCC2C1=O)Nc1nc2ccccc2[nH]1 (stereo not given) | inactive: -1.39% | – |
| O=c1[nH]c(SCc2c(Cl)cccc2Cl)nc2ccccc12 | inactive: -19.4% | – |
| COc1ccccc1NS(=O)(=O)c1cc(N2Cc3ccccc3C2=N)ccc1N1CCOCC1 | – | inconclusive: 35.5 µM [inhibitor, single point] |
| CC(=C/c1ccc(C(C)C)cc1)/C=N/NC(=O)c1ccncc1 | – | inconclusive: 18.3 µM [inhibitor, partial curve, poor fit] |
| Clc1ccc(Cn2ncc3c(NCc4ccco4)ncnc32)c(Cl)c1 | – | inconclusive: 14.1 µM [inhibitor, partial curve, poor fit] |
| Cc1nc(CSc2ccc(Cl)cc2)cc(NCc2ccccc2)n1 | inactive: -10.8% | – |
| c1ccc2c(c1)OCCOCCOc1ccccc1OCCOCCO2 | inactive: -2.32% | – |
| COC(=O)C/C=C/[C@@H](C)[C@@H](/C=N/O[C@H](C)c1cn([C@@H]2COC[C@H]2O)nn1)NS(=O)(=O)c1ccc(C)cc1 | – | inconclusive: 18.4 µM [inhibitor, single point] |
| COCCNC(=O)C(=O)NNC(=O)c1ccccc1OC | – | inconclusive: 5.62 µM [activator, full curve, poor fit] |

Fetched by compound from the entries so far:

| SMILES | activity change, negative = inhibition | Potency |
| --- | --- | --- |
| O=C(CN1C(=O)C2CC=CCC2C1=O)Nc1nc2ccccc2[nH]1 (stereo not given) | inactive: -1.39% | – |
| O=c1[nH]c(SCc2c(Cl)cccc2Cl)nc2ccccc12 | inactive: -19.4% | – |

The results go on:

| SMILES | activity change, negative = inhibition | Potency |
| --- | --- | --- |
| COc1cc(-c2cc(-c3ccccc3)nc(SCC(=O)O)c2C#N)cc(OC)c1OC | – | inconclusive: 35.5 µM [inhibitor, single point] |
| O=C(NCC(c1ccco1)N1CCc2ccccc2C1)c1cccc(Br)c1 (stereo not given) | inactive: -18% | – |
| Cc1cccc(/C(N)=N/OC(=O)c2ccc(Cl)cc2Cl)c1 | – | inconclusive: 1.64 µM [activator, full curve, poor fit] |
| CCS(=O)(=O)NCc1cn2c(C)csc2n1 | inactive: 16.2% | – |
| Cc1noc(C)c1S(=O)(=O)Nc1ccc(C(=O)Nc2ccc(Br)cc2)cc1 | – | inconclusive: 11.2 µM [inhibitor, partial curve, poor fit] |
| COc1cccc(NC(=O)Nc2ccccc2C(N)=O)c1 | inactive: 10.9% [at 46.1 µM] | – |
| Cc1cc(C)cc(C(=O)N(c2ccccn2)C(C)c2ccco2)c1 (stereo not given) | inactive: -5.18% | – |
| Nc1c(Sc2ccccc2)c(=O)[nH]c(=O)n1Cc1ccccc1 | – | inconclusive: 29.1 µM [activator, partial curve, poor fit] |
| CC1=C(C)CC(C(=O)Nc2cccc(Cl)c2)C(C(=O)O)C1 (stereo not given) | inactive: -13.8% | – |
| CCc1cccc(C)c1NC(=O)c1cc(S(=O)(=O)N2CCOCC2)cn1C | inactive: -17.9% [at 46.1 µM] | – |
| Cc1ccc(S(=O)(=O)N2CCCC2CNC(=O)C(=O)Nc2ccccc2)cc1 (stereo not given) | – | inconclusive: 12.6 µM [inhibitor, single point] |
| COc1cccc(/C=N/Nc2ncccc2[N+](=O)[O-])c1OC | – | inconclusive: 1.12 µM [inhibitor, full curve, poor fit] |
| CC(=O)c1cccc(NC2c3ncccc3C(=O)N2Cc2ccco2)c1 (stereo not given) | – | inconclusive: 16.4 µM [inhibitor, single point] |
| Cc1cc(C)[n+](C2C3CC4CC(C3)CC2C4)o1 (stereo not given) | – | inconclusive: 0.112 µM [inhibitor, partial curve, poor fit] |
| COc1ccc(N(Cc2cccs2)C(=O)c2ccccc2C)cc1 | inactive: -11.3% [at 46.1 µM] | – |
| Cc1[nH]c(=O)c(C(=O)/C=C/c2ccccc2)c2c1CCCC2 | – | inconclusive: 13 µM [inhibitor, partial curve, poor fit] |
| CC(OC(=O)c1nc(Cl)ccc1Cl)C(=O)c1ccccc1 (stereo not given) | – | inconclusive: 35.5 µM [activator, single point] |
| O=C(CCc1ccc(S(=O)(=O)N2CCOCC2)cc1)Nc1ccc(F)cc1[N+](=O)[O-] | inactive: -1.73% | – |
| CCOc1cccc(/C(O)=C2/C(=O)C(=O)N(Cc3cccnc3)C2c2ccco2)c1 (stereo not given) | inactive: 24.7% | – |
| Cc1ccc(CS(=O)(=O)c2cn(CC(=O)N(C)c3ccccc3)c3ccccc23)cc1 | – | inconclusive: 35.5 µM [inhibitor, single point] |
| COc1cccc(C(C(=O)NC2CCCCC2)N(C(=O)c2ccco2)c2ccccc2OC)c1 (stereo not given) | – | inconclusive: 14.1 µM [inhibitor, single point] |
| COc1ccc(CNC(=S)Nc2ccc3nc(N4CCN(C)CC4)cc(C)c3c2)cc1 | – | inconclusive: 11.2 µM [inhibitor, partial curve, poor fit] |

From PubChem BioAssay AID540256 (National Center for Advancing Translational Sciences (NCATS), 2011)
